# Measurements from PubChem BioAssay (EPA / NIEHS).
# Amino acid sequences for entries named in this document (tags omitted). A change or cut given only in a name is not applied to a line headed by its entry.
# UniProt Q9UNQ0: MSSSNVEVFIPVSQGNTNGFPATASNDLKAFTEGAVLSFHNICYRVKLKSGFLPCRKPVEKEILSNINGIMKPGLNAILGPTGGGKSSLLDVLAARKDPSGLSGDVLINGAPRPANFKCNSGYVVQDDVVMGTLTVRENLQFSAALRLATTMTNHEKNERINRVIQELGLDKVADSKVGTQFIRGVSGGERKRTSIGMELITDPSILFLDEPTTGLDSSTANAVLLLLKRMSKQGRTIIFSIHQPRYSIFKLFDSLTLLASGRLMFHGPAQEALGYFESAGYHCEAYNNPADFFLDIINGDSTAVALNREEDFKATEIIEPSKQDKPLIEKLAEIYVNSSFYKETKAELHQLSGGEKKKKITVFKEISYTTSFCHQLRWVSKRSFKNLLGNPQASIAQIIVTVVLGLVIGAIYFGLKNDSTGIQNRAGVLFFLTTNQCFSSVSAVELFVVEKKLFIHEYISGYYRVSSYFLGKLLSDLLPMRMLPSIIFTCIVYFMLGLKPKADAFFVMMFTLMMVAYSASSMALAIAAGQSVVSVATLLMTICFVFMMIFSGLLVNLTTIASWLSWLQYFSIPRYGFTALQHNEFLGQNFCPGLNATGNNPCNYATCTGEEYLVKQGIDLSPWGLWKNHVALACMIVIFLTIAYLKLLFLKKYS
# “And” between values parts separate entries of the source, which are not always exact repeats. Equal entries are not always repeated. Inconclusive results, whose numbers are uncertain, are shown with a selection of clear calls. Potencies beside an inconclusive call are fits to weak or partial responses and may not hold up. The source made the active and inactive calls. How the source made its calls: active means hit-call score of the fitted dose curve at least 0.9, where 1 is the maximum; inconclusive means response in the unintended direction; inactive means score below 0.9.
# Legend:
# [1] = Tanguay_ZF_120hpf_AXIS_legacy: (Legacy) Oregon State University Tanguay Lab 120 Hour Post-fertilization zebrafish Assay for Body Axis Malformation (AID 2283635);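 on AC50: potency for an increased fraction of larvae scored with body axis malformation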
# Method in brief: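 Chorion is removed with pronase at 4 hpf, then single 6 hpf embryos are dosed (final DMSO 0.64%) and held statically at 28C in sealed, foil-covered plates. At 120 hpf body axis malformation is recorded as present or absent.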
# [2] = Tanguay_ZF_120hpf_SOMI_legacy: (Legacy) Oregon State University Tanguay Lab 120 Hour Post-fertilization zebrafish Assay for Somite Malformation (AID 2283647)
# Method in brief: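 Read-out: presence or absence of somite malformation in 120 hpf larvae, gain-of-signal relative to DMSO baseline. Embryos lacked chorion (pronase, 4 hpf) and were exposed statically from 6 hpf at 28C; dead larvae not scored.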
# [3] = Tanguay_ZF_120hpf_PFIN_legacy: (Legacy) Oregon State University Tanguay Lab 120 Hour Post-fertilization zebrafish Assay for Pectoral Fin Malformation (AID 2283648);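 further: each larva judged yes or no for fin defect by brightfield with dead larvae skipped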
# Method in brief: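 Pectoral fin malformation was recorded as a binary endpoint at 120 hpf in wild-type Tropical 5D larvae, which had been dechorionated and exposed statically from 6 hpf at 28C in 0.64% DMSO. Dead embryos were excluded.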
# [4] = Tanguay_ZF_120hpf_SWIM_legacy: (Legacy) Oregon State University Tanguay Lab 120 Hour Post-fertilization zebrafish Assay for Swim Bladder Malformation (AID 2283654);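 further: swim bladder malformation in each larva scored yes or no under brightfield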
# Method in brief: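 Scoring is binary for swim bladder defects at 120 hpf, by brightfield inspection of zebrafish larvae. Embryos were exposed singly from 6 hpf after pronase dechorionation, at 28C with 0.64% DMSO; mortality excluded scoring.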
# [5] = Tanguay_ZF_120hpf_SNOU_legacy: (Legacy) Oregon State University Tanguay Lab 120 Hour Post-fertilization zebrafish Assay for Snout Malformation (AID 2283637)
# Method in brief: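 Binary snout-malformation call at 120 hpf in wild-type 5D embryos, chorion removed by pronase, under static exposure from 6 hpf at 28C (0.64% DMSO). Embryos dying by 24 or 120 hpf excluded.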
# [6] = Tanguay_ZF_120hpf_OTIC_legacy: (Legacy) Oregon State University Tanguay Lab 120 Hour Post-fertilization zebrafish Assay for Otic Vesicle Malformation (AID 2283639)
# Method in brief: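 Binary scoring of otic vesicle defects at 120 hpf in zebrafish (Tropical 5D) held under static exposure at 28C, sealed and shaded, with final DMSO 0.64%. Embryos dying by 24 or 120 hpf excluded; fitted positively against DMSO.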
# [7] = Tanguay_ZF_120hpf_BRAI_legacy: (Legacy) Oregon State University Tanguay Lab 120 Hour Post-fertilization zebrafish Assay for Brain Malformation (AID 2283641)
# Method in brief: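 Wild-type 5D larvae, static waterborne exposure to 120 hpf, 28C, 0.64% v/v DMSO. Brightfield scoring of brain defects, binary; dead embryos excluded. Positive ctrl 5uM trimethyltin chloride.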
# [8] = Tanguay_ZF_120hpf_JAW_legacy: (Legacy) Oregon State University Tanguay Lab 120 Hour Post-fertilization zebrafish Assay for Jaw Malformation (AID 2283638);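 on AC50: active means more embryos with jaw malformation than DMSO controls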
# Method in brief: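 Steps: dechorionate 4 hpf embryos (pronase); plate 1/well at 6 hpf; add test chemical, 0.64% DMSO final; seal, cover, hold at 28C statically to 120 hpf; score jaw defect presence/absence microscopically. Dead embryos not scored.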
# [9] = Tanguay_ZF_120hpf_CIRC_legacy: (Legacy) Oregon State University Tanguay Lab 120 Hour Post-fertilization zebrafish Assay for Circulatory Malformation (AID 2283651)
# Method in brief: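 Binary circulatory malformation call at 120 hpf by brightfield imaging of zebrafish larvae; chorion removed at 4 hpf, static exposure from 6 hpf in sealed dark plates at 28C, final DMSO 0.64%; non-mortality endpoints skipped if embryo died.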
# [10] = read-out: ABC Transporter (ABCB1), ABCB1 (gene 5243); experiment: CLD_ABCB1_6hr: CellzDirect (CLD) Gene Expression Assay for ABC Transporter (ABCB1) at 6 hours (AID 2283659);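 on outcome: hits raise ABCB1 transcript above the DMSO vehicle baseline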
# Method in brief: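 ABCB1 transcript measured by quantitative nuclease protection assay, chemiluminescent read-out, 6 h after dosing human hepatocyte cultures (0.2% DMSO vehicle, daily redosing). Activity fitted as increase over DMSO baseline; cytotoxicity flagged by phase-contrast morphology.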
# [11] = Tanguay_ZF_120hpf_PIG_legacy: (Legacy) Oregon State University Tanguay Lab 120 Hour Post-fertilization zebrafish Assay for Pigmentation Malformation (AID 2283650)
# Method in brief: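 Pigment malformation recorded as a binary call at 120 hpf in zebrafish (Tropical 5D) exposed singly from 6 hpf after pronase dechorionation. Static, sealed, 28C exposure, 0.64% DMSO; mortality excludes scoring; positive-direction fit against DMSO.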
# [12] = Tanguay_ZF_120hpf_TRUN_legacy: (Legacy) Oregon State University Tanguay Lab 120 Hour Post-fertilization zebrafish Assay for Truncated Body (AID 2283655)
# Method in brief: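 Truncated body is recorded as a binary endpoint at 120 hpf by brightfield imaging of wild-type 5D larvae. Exposure runs statically from 6 hpf at 28C with 0.64% DMSO; embryos dying earlier are not scored.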
# [13] = Tanguay_ZF_120hpf_PE_legacy: (Legacy) Oregon State University Tanguay Lab 120 Hour Post-fertilization zebrafish Assay for Pericardial Edema (AID 2283640);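 on AC50: potency for increased incidence of pericardial edema versus DMSO baseline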
# Method in brief: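 Embryos from wild-type 5D adults were staged, then dosed in 0.64% DMSO. They were kept sealed in the dark at 28C until 120 hpf. Pericardial edema was then recorded as present or absent.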
# [14] = Tanguay_ZF_120hpf_CFIN_legacy: (Legacy) Oregon State University Tanguay Lab 120 Hour Post-fertilization zebrafish Assay for Caudal Fin Malformation (AID 2283649)
# Method in brief: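 Binary presence or absence of caudal fin malformation at 120 hpf, read by brightfield microscopy, with DMSO as baseline. Larvae came from 5D wild-type embryos exposed statically from 6 hpf at 28C after pronase dechorionation.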
# [15] = Tanguay_ZF_120hpf_EYE_legacy: (Legacy) Oregon State University Tanguay Lab 120 Hour Post-fertilization zebrafish Assay for Eye Malformation (AID 2283636)
# Method in brief: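 Binary brightfield scoring of eye defects at 120 hpf after static exposure from 6 hpf of single pronase-dechorionated wild-type embryos (28C, 0.64% DMSO). Non-mortality endpoints omitted where embryos died; fit vs DMSO.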
# [16] = Tanguay_ZF_120hpf_NC_legacy: (Legacy) Oregon State University Tanguay Lab 120 Hour Post-fertilization zebrafish Assay for Notochord and Tail Malformation (AID 2283656)
# Method in brief: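 Binary scoring of notochord distortion by brightfield microscopy; embryos dying were not scored. Wild-type Tropical 5D embryos, chorion removed, exposed singly and statically from 6 to 120 hpf, 28C, sealed, 0.64% DMSO.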
# [17] = read-out: Broad substrate specificity ATP-binding cassette transporter ABCG2 (Homo sapiens) (UniProt Q9UNQ0); experiment: CLD_ABCG2_6hr: CellzDirect (CLD) Gene Expression Assay for ABC Transporter (ABCG2) at 6 hours (AID 2283660)
# Method in brief: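 ABCG2 mRNA induction measured by qNPA chemiluminescence in human primary hepatocyte cultures, 6 h post-dose. Chemicals tested at several concentrations against a 0.2% DMSO vehicle; positive-direction fit relative to DMSO.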
# [18] = read-out: xenobiotic metabolism (CYP1A1), CYP1A1 (gene 1543); experiment: CLD_CYP1A1_6hr: CellzDirect (CLD) Gene Expression Assay for xenobiotic metabolism (CYP1A1) at 6 hours (AID 2283661);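 on AC50: potency for transcript induction above DMSO vehicle baseline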
# Method in brief: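 Read-out 6 h post-dose: qNPA chemiluminescent quantitation of transcript induction against 0.2% DMSO. Cells were cultured primary human hepatocytes from two separate donor preparations; phase-contrast morphology annotated apparent cytotoxicity.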
structure (smiles),measurement,setting,value
CN(C)C(=O)Cl,AC50,[1],inconclusive: 28.5 µM
same,AC50,[2],inconclusive: 26.7 µM
same,AC50,[3],inconclusive: 0.0959 µM
same,AC50,[4],inconclusive: 170 µM
Cc1ccccc1N,AC50,[1],inconclusive: 33 µM
same,outcome,[5],inactive
same,AC50,[6],inconclusive: 31.3 µM
same,outcome,[7],inactive
CCON=C(CC)C1=C(O)CC(c2c(C)cc(C)cc2C)CC1=O (stereo not given),outcome,[1],inactive
same,outcome,[8],inactive
same,outcome,[6],inactive
same,outcome,[3],inactive
same,AC50,[9],inconclusive: 118 µM
same,AC50,[10],inconclusive: 20 µM
O=C(O)C1C2CCC(O2)C1C(=O)O (stereo not given),outcome,[1],inactive
same,outcome,[8],inactive
same,AC50,[6],inconclusive: 0.000597 µM
same,AC50,[7],inconclusive: 3.73 µM
same,AC50,[11],inconclusive: 0.162 µM
same,outcome,[4],inactive
same,AC50,[12],inconclusive: 1.41 µM
C[C@]12CCC(=O)C=C1CC[C@@H]1[C@@H]2CC[C@]2(C)C(=O)CC[C@@H]12,AC50,[1],active: 40.2 µM
same,AC50,[13],active: 36.3 µM
same,AC50,[14],active: 40.4 µM
same,AC50,[11],active: 43.9 µM
Oc1cc(Cl)ccc1Oc1ccc(Cl)cc1Cl,AC50,[1],inconclusive: 20.6 µM
same,outcome,[15],inactive
same,outcome,[8],inactive
same,AC50,[14],inconclusive: 20.6 µM
same,AC50,[11],inconclusive: 90.8 µM
same,outcome,[11],inactive
same,AC50,[12],inconclusive: 20.6 µM and inconclusive: 180 µM
same,AC50,[16],inconclusive: 3.44 µM
same,outcome,[10],inactive
same,AC50,[17],inconclusive: 0.00366 µM
O=[N+]([O-])c1ccc(O)c([N+](=O)[O-])c1,AC50,[1],inconclusive: 16.6 µM
same,AC50,[14],inconclusive: 0.307 µM
same,outcome,[9],inactive
same,AC50,[12],inconclusive: 2.56 µM
Nc1c(Cl)c(F)nc(OCC(=O)O)c1Cl,AC50,[1],inconclusive: 181 µM
same,outcome,[13],inactive
same,AC50,[7],inconclusive: 22.1 µM
same,AC50,[3],inconclusive: 197 µM
same,AC50,[4],inconclusive: 43.9 µM
same,outcome,[12],inactive
CCCCN(CCCC)SN(C)C(=O)Oc1cccc2c1OC(C)(C)C2,AC50,[15],inconclusive: 1.83 µM
O=[N+]([O-])c1cc(C(F)(F)F)c(Cl)c([N+](=O)[O-])c1Nc1ncc(C(F)(F)F)cc1Cl,AC50,[2],inconclusive: 37.5 µM
CC(C)(C)C(O)(CCc1ccc(Cl)cc1)Cn1cncn1 (stereo not given),AC50,[8],inconclusive: 195 µM
same,outcome,[2],inactive
same,AC50,[3],inconclusive: 25.7 µM
same,AC50,[9],inconclusive: 12.2 µM
same,AC50,[12],inconclusive: 1.45 µM
same,outcome,[16],inactive
COP(=S)(OC)Oc1ccc([N+](=O)[O-])c(C)c1,outcome,[8],inactive
same,outcome,[6],inactive
same,outcome,[16],inactive
same,AC50,[17],inconclusive: 8.49 µM
CC(C)(O)C(=O)Nc1ccc([N+](=O)[O-])c(C(F)(F)F)c1,AC50,[5],active: 7.43 µM
same,AC50,[6],inconclusive: 15.6 µM
same,AC50,[14],inconclusive: 101 µM
same,AC50,[12],active: 22.1 µM
O=C1c2ccccc2C(=O)N1SC(Cl)(Cl)Cl,outcome,[8],inactive
same,outcome,[14],inactive
same,AC50,[9],inconclusive: 138 µM
same,AC50,[18],inconclusive: 8.73 µM
Clc1ccc(Cl)c(Cl)c1,AC50,[5],inconclusive: 3.51 µM
same,AC50,[6],inconclusive: 202 µM
same,outcome,[9],inactive
same,AC50,[12],inconclusive: 202 µM
same,outcome,[16],inactive
CCCN(CCC)c1c([N+](=O)[O-])cc(C(F)(F)F)cc1[N+](=O)[O-],outcome,[5],inactive
same,AC50,[6],inconclusive: 29.9 µM
same,AC50,[13],inconclusive: 57.6 µM
same,AC50,[7],inconclusive: 11 µM
O=C(O)C1(c2ccc3c(c2)OC[C@H](Cc2ccc(-c4ccccc4)cc2)[C@H]3O)CCCC1,AC50,[8],inconclusive: 182 µM
same,AC50,[3],inconclusive: 42 µM
same,AC50,[14],inconclusive: 153 µM
same,AC50,[16],inconclusive: 26.2 µM
O=[N+]([O-])c1ccc(Oc2ccc(Cl)cc2Cl)cc1,AC50,[5],inconclusive: 16.2 µM
same,AC50,[8],inconclusive: 180 µM
same,AC50,[11],inconclusive: 0.000631 µM
same,AC50,[9],inconclusive: 91.7 µM
same,AC50,[16],inconclusive: 49.3 µM
N#Cc1cccnc1,outcome,[5],inactive
same,AC50,[12],inconclusive: 164 µM
same,outcome,[16],inactive
CN=C=S,AC50,[5],inconclusive: 1.65 µM
same,AC50,[8],inconclusive: 173 µM
same,AC50,[2],inconclusive: 0.1 µM
same,AC50,[16],inconclusive: 0.687 µM
same,outcome,[18],inactive
CN(C)c1nc(=O)n(C2CCCCC2)c(=O)n1C,AC50,[8],inconclusive: 96.1 µM
same,AC50,[3],inconclusive: 150 µM
same,AC50,[11],inconclusive: 65.9 µM
same,AC50,[4],inconclusive: 8.45 µM
CCCCOC(=O)[C@@H](C)Oc1ccc(Oc2ccc(C#N)cc2F)cc1,outcome,[5],inactive
same,AC50,[6],inconclusive: 201 µM
same,AC50,[7],inconclusive: 201 µM
same,AC50,[2],inconclusive: 201 µM
same,AC50,[3],inconclusive: 1.5 µM
same,AC50,[9],inconclusive: 34.7 µM
same,AC50,[4],inconclusive: 201 µM
same,outcome,[16],inactive
same,AC50,[17],inconclusive: 20 µM
same,outcome,[18],inactive

# Given with bars between the fields: part of the list above.
structure (smiles) | measurement | setting | value
O=C(O)C1C2CCC(O2)C1C(=O)O (stereo not given) | outcome | [4] | inactive
Oc1cc(Cl)ccc1Oc1ccc(Cl)cc1Cl | outcome | [10] | inactive
O=[N+]([O-])c1ccc(O)c([N+](=O)[O-])c1 | outcome | [9] | inactive
Clc1ccc(Cl)c(Cl)c1 | AC50 | [6] | inconclusive: 202 µM
CN=C=S | AC50 | [16] | inconclusive: 0.687 µM
CCCCOC(=O)[C@@H](C)Oc1ccc(Oc2ccc(C#N)cc2F)cc1 | AC50 | [3] | inconclusive: 1.5 µM
